Here are results for 38 targets from the supplement of paper PMC12819154, “High-throughput peptide-centric local stability assay extends protein–ligand identification to membrane proteins, tissues and bacteria” (Nature Structural & Molecular Biology, 2025).

Protein sequences, listed by entry. Tags and fused reporters are not part of them. Lines headed by an entry give the natural chain unless they say otherwise; changes in a name come on top.
UniProt Q9GZT4: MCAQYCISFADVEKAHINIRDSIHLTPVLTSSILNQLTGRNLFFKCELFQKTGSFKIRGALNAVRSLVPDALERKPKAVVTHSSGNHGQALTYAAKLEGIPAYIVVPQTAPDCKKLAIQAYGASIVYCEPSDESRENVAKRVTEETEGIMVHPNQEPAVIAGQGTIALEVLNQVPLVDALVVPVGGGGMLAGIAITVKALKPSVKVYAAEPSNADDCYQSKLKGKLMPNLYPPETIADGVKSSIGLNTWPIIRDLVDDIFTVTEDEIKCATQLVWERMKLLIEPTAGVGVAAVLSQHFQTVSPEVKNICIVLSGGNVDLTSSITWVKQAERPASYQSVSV
UniProt Q9C0D3: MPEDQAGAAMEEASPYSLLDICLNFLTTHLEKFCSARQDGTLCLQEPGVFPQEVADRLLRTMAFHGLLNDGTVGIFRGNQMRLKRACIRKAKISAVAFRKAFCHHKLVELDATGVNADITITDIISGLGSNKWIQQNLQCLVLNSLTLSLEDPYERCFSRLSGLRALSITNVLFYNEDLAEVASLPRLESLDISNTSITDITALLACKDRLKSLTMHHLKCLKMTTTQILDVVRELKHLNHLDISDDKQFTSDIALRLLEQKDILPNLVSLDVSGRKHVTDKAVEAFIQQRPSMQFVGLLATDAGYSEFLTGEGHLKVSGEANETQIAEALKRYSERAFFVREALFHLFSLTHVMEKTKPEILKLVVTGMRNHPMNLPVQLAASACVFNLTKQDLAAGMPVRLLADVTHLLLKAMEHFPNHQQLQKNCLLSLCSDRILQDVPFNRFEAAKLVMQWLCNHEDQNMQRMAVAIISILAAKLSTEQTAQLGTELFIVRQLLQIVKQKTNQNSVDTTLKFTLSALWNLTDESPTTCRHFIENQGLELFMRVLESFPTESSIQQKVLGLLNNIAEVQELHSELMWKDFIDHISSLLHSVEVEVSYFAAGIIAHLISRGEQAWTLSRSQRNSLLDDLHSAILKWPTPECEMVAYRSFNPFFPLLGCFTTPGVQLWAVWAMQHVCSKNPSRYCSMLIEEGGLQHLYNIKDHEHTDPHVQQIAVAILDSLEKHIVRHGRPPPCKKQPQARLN
UniProt Q9BUW7: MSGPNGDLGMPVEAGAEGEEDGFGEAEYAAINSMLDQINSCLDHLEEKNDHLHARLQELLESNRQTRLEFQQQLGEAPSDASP
UniProt Q9BZ68: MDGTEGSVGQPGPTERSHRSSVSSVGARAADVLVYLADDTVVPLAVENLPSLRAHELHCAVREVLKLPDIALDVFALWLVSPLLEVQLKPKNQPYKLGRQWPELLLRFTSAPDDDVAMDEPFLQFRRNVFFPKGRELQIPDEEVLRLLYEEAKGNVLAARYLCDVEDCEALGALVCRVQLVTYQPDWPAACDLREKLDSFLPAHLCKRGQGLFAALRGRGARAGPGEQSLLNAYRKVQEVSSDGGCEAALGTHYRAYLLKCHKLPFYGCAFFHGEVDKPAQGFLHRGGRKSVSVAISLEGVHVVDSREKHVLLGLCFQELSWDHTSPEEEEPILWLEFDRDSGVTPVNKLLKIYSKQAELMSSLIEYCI
UniProt Q9BVC5: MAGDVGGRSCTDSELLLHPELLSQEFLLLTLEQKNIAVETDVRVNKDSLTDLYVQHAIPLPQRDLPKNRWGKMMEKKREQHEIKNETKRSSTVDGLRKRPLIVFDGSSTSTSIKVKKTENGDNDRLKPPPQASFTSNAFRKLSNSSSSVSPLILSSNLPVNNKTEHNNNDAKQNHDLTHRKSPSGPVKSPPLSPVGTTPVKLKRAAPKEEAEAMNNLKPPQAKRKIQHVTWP
UniProt Q9H0D6: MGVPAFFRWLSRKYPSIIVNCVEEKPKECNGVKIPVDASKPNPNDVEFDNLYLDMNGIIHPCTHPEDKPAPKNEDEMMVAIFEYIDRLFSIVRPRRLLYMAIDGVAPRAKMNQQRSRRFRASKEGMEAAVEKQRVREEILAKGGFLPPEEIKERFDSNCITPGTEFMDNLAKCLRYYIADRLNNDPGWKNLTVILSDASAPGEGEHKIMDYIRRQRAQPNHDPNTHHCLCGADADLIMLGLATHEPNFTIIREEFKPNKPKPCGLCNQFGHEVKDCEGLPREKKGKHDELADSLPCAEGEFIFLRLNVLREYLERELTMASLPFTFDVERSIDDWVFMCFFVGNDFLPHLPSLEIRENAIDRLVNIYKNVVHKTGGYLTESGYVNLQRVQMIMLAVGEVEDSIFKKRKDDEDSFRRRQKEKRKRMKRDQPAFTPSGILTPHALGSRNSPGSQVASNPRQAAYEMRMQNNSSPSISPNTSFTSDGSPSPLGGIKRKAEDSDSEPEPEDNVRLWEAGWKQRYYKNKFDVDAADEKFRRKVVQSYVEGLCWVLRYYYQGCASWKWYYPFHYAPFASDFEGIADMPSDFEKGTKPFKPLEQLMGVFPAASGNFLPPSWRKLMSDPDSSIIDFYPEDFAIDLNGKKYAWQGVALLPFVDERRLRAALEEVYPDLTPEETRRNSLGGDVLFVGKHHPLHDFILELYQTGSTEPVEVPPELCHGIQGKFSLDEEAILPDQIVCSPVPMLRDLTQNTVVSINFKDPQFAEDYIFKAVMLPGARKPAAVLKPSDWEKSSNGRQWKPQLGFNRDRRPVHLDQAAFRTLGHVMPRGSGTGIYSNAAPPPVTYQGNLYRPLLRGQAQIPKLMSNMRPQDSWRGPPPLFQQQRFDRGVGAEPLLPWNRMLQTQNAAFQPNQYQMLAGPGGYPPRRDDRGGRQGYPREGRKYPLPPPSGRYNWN
UniProt Q9BWW4: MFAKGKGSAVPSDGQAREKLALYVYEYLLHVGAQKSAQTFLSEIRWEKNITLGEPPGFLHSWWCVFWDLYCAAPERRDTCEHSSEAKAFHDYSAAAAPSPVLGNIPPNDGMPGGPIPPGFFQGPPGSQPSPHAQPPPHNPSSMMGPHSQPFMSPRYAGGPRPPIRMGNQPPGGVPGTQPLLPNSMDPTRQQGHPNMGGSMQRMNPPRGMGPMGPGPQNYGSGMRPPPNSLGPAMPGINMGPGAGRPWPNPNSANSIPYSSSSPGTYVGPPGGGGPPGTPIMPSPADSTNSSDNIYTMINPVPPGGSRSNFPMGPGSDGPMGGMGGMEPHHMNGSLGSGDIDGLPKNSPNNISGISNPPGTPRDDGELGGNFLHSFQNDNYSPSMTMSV
UniProt Q9C010: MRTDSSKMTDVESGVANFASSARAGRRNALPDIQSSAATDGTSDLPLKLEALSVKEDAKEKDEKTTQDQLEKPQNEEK
UniProt Q9H0Z9: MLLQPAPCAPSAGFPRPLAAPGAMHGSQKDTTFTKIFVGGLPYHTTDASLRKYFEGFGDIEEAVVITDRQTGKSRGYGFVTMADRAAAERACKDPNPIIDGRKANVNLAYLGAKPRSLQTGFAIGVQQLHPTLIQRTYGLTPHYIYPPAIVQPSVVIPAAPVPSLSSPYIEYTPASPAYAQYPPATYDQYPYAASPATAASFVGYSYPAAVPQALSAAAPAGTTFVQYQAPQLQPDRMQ
UniProt Q9H0X4: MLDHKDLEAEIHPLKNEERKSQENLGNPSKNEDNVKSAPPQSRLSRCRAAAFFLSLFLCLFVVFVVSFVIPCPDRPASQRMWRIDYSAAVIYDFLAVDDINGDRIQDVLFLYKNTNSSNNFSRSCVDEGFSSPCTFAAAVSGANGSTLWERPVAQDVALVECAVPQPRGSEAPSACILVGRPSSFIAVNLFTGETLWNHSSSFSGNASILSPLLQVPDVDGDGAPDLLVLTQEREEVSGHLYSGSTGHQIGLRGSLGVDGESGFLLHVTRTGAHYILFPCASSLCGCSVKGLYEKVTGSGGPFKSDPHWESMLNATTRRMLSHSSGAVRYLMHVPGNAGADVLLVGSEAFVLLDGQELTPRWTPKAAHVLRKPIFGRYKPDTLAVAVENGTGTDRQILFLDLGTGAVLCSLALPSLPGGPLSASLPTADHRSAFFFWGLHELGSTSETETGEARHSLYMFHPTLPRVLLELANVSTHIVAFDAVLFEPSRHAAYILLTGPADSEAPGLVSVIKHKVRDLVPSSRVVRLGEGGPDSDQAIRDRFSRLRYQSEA
UniProt Q9H078: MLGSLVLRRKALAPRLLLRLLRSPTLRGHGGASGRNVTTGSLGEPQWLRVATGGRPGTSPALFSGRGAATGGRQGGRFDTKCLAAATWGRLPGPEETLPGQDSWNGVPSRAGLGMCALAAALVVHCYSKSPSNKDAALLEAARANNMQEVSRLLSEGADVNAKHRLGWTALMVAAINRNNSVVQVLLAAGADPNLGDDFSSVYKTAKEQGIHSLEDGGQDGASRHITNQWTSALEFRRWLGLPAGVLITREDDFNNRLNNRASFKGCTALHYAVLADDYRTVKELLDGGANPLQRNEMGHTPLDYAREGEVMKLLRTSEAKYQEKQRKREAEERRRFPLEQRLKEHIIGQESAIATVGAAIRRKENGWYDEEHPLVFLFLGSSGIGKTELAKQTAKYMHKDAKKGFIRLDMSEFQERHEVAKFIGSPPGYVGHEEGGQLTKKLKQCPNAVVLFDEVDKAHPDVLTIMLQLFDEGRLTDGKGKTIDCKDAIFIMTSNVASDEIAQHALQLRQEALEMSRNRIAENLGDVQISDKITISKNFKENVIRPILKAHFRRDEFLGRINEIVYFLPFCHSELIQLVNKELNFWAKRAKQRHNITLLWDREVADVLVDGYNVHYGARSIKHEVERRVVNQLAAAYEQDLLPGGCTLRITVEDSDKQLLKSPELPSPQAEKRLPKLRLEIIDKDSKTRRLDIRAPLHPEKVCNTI
UniProt Q9H0Y0: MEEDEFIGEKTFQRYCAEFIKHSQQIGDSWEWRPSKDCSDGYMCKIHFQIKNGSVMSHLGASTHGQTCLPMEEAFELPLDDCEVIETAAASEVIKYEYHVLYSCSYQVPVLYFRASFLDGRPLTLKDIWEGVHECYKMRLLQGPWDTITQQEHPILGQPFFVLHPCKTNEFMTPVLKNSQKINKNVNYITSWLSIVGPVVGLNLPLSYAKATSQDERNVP
UniProt Q9C0D0: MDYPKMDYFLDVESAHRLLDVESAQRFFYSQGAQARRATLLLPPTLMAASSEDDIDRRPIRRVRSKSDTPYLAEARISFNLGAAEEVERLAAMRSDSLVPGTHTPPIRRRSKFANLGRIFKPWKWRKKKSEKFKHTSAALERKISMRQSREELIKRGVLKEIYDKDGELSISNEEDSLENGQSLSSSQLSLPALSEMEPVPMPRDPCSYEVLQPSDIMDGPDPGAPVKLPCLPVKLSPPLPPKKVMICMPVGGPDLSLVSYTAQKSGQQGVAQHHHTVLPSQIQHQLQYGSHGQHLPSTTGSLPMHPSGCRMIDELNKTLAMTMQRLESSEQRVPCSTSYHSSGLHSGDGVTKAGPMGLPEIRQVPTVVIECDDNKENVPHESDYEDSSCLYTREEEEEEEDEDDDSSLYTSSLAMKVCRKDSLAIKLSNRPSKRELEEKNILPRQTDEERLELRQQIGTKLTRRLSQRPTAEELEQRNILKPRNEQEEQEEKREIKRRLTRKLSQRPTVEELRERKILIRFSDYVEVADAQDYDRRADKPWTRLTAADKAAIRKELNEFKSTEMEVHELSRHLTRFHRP
UniProt Q9H0A0: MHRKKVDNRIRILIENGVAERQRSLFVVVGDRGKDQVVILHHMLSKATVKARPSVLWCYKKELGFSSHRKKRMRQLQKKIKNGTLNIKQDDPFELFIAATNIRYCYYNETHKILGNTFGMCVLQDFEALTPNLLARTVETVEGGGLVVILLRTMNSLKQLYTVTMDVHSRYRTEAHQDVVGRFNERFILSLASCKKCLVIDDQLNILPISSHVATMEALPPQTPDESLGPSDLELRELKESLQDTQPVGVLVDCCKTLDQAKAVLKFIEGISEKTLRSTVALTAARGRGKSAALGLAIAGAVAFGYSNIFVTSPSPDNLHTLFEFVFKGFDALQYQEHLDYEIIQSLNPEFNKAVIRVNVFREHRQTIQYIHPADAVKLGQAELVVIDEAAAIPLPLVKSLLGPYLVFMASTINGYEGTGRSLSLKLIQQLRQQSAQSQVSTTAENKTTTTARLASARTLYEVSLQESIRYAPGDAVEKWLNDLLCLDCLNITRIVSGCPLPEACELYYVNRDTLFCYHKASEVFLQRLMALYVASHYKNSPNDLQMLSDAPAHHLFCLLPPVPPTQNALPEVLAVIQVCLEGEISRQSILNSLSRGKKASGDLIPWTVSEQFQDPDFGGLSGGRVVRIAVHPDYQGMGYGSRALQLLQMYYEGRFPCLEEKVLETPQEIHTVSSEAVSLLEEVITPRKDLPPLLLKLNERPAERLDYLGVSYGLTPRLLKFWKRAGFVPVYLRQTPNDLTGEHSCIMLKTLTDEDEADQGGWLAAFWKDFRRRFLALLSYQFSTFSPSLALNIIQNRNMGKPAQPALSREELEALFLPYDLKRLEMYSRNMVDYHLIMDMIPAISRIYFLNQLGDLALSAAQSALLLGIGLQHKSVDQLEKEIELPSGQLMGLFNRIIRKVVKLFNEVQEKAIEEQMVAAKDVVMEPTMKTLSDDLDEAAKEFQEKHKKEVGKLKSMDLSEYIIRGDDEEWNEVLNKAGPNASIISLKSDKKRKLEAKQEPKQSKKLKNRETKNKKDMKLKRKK

This is one part of the list. Small differences around the control level are noise.

Compound in the test: Cc1nc(Nc2ncc(C(=O)Nc3c(C)cccc3Cl)s2)cc(N2CCN(CCO)CC2)n1 [dasatinib]
In words: log2 fold change of tryptic peptide abundance, ligand vs vehicle (limited proteolysis) (log2 ratio); higher = more trypsin-susceptible (destabilized). The note with it: ligand concentration: 5 uM; sample: K562 cleared lysate.
As for “SRR (peptide sequence: SLVPDALER, peptide start residue: 66) (UniProt Q9GZT4)”, the log2 fold change was found to be 0.1. The result for “ASCC2 (peptide sequence: PALPLDQLQITHKDPK, peptide start residue: 2) (UniProt Q9H1I8)” reads -0.234; that for “TMUB1 (peptide sequence: AWPHDTIGSLKR, peptide start residue: 119) (UniProt Q9BVT8)”, -0.134; that for “RAB1B (peptide sequence: MGPGAASGGERPNLK, peptide start residue: 173) (UniProt Q9H0U4)”, -0.058. Next, “POLDIP3 (peptide sequence: INVVNNHQAK, peptide start residue: 169) (UniProt Q9BY77)”: -0.297; “TOLLIP (peptide sequence: LRLGYAVYETPTAHNGAK, peptide start residue: 79) (UniProt Q9H0E2)”: 0.27. Take “SENP6 (peptide sequence: KHCIAVIDSNPGQEESDPR, peptide start residue: 831) (UniProt Q9GZR1)”: the log2 fold change came out at 0.591. With “ZYG11B (peptide sequence: HGRPPPCKK, peptide start residue: 729) (UniProt Q9C0D3)”, the log2 fold change turned out to be 0.0887.

For the target “ANAPC1 (peptide sequence: VQYVVDHAMK, peptide start residue: 236) (UniProt Q9H1A4)”, the log2 fold change is -0.348.

As for “UNK (peptide sequence: DALEVQVK, peptide start residue: 704) (UniProt Q9C0B0)”, the log2 fold change is -0.236.

For “UniProt Q9H0P0 (peptide sequence: SHGLLVQQALPK, peptide start residue: 156)”, the log2 fold change turned out to be 0.432. “ANKRD30A (peptide sequence: KFCVLKK, peptide start residue: 995) (UniProt Q9BXX3)”: the log2 fold change was -0.054. As for “UniProt Q9C0F3 (peptide sequence: VHTGEKPYECTECEK, peptide start residue: 439)”, the log2 fold change amounted to 0.1. As for “C9orf16 (peptide sequence: NDHLHAR, peptide start residue: 49) (UniProt Q9BUW7)”, the log2 fold change was -0.25. As to “UniProt Q9H0R8 (peptide sequence: KYPDRVPVIVEK, peptide start residue: 24)”, the log2 fold change was -0.16. Next, “UniProt Q9BZ68 (peptide sequence: EKLDSFLPAHLCK, peptide start residue: 195)”: -0.0582; “C2orf49 (peptide sequence: RPLIVFDGSSTSTSIK, peptide start residue: 99) (UniProt Q9BVC5)”: -0.259; “ENKD1 (peptide sequence: LLQSQSQLLR, peptide start residue: 291) (UniProt Q9H0I2)”: -0.231. Next, “XRN2 (peptide sequence: GVGAEPLLPWNR, peptide start residue: 884) (UniProt Q9H0D6)”: -0.206. As to “UniProt Q9BWW4 (peptide sequence: GKGSAVPSDGQAR, peptide start residue: 5)”, the log2 fold change worked out at 0.458. “PKIB (peptide sequence: TTQDQLEKPQNEEK, peptide start residue: 65) (UniProt Q9C010)”: the log2 fold change was -0.0107. For the target “FANCD2 (peptide sequence: QCMPLLDFSFRK, peptide start residue: 1308) (UniProt Q9BXW9)”, the log2 fold change was determined as 0.331. With “KATNAL1 (peptide sequence: LLFEMAR, peptide start residue: 292) (UniProt Q9BW62)”, the log2 fold change was -0.121.

Regarding “RBM38 (peptide sequence: KANVNLAYLGAKPR, peptide start residue: 103) (UniProt Q9H0Z9)”, the log2 fold change stood at 0.198.

As for “DDX47 (peptide sequence: KTFLFSATMTK, peptide start residue: 200) (UniProt Q9H0S4)”, the log2 fold change is -0.426. As to “UniProt Q9H0X4 (peptide sequence: KPIFGRYK, peptide start residue: 372)”, the log2 fold change was determined as 0.0843. Turning to “INO80B (peptide sequence: AAAPAPMVR, peptide start residue: 266) (UniProt Q9C086)”, the log2 fold change is -0.203. Next, “UniProt Q9H0E7 (peptide sequence: RFRWSGR, peptide start residue: 555)”: -0.0445; “CLPB (peptide sequence: LEIIDKDSK, peptide start residue: 680) (UniProt Q9H078)”: -0.659; “MAK16 (peptide sequence: TKTQSFCR, peptide start residue: 23) (UniProt Q9BXY0)”: -0.503. Consider “ATG10 (peptide sequence: YCAEFIK, peptide start residue: 15) (UniProt Q9H0Y0)”, for which the log2 fold change amounted to 0.124. With “UniProt Q9C0A6 (peptide sequence: GTSSSHCRPQENISSR, peptide start residue: 1150)”, the log2 fold change turned out to be 0.525.

With “FAM117A (peptide sequence: RGCSPPAPAGSPR, peptide start residue: 26) (UniProt Q9C073)”, the log2 fold change is -0.224. In the case of “UniProt Q9C0D0 (peptide sequence: STEMEVHELSR, peptide start residue: 562)”, the log2 fold change stood at 0.307. For the target “NUSAP1 (peptide sequence: LTTEATQTPVSNKKPVFDLK, peptide start residue: 342) (UniProt Q9BXS6)”, the log2 fold change was found to be 0.246. “OSBPL8 (peptide sequence: FEEQGDFESEKLWQR, peptide start residue: 675) (UniProt Q9BZF1)”: the log2 fold change was -0.488.

“PUS3 (peptide sequence: RDCNDTLEEENTNLETPTKR, peptide start residue: 451) (UniProt Q9BZE2)”: the log2 fold change was determined as 0.409.

Consider “NAT10 (peptide sequence: YCYYNETHK, peptide start residue: 104) (UniProt Q9H0A0)”, for which the log2 fold change amounted to 0.118.
